The target in this assay is histidine triad nucleotide-binding protein 3 (HINT3) (human (endogenous in HPAECs)) (UniProt Q9NQE9). In words: co-IP; HPAEC lysates (1 mg) incubated with anti-HINT3 antibody (or control IgG) overnight at 4 °C, protein A/G agarose 2 h at 4 °C, washed three times with cold PBS-T (PBS + 1% Triton), immunoblotted. (In general: In western blotting, separated proteins are transferred to a membrane and probed.)

Amino acid sequences for entries named in this document (tags omitted).
UniProt Q9NQE9: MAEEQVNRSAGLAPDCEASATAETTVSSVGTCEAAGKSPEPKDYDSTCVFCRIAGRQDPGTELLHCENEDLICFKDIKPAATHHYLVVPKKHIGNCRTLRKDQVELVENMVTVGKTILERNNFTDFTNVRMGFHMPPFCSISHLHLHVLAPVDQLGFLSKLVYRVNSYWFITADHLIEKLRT
UniProt P10415: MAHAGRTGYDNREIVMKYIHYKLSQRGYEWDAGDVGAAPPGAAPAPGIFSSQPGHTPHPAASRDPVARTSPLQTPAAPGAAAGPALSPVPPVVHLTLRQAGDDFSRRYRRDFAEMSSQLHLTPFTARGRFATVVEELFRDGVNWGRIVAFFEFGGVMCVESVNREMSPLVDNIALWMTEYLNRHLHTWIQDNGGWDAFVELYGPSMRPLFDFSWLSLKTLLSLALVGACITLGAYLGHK
UniProt P51784: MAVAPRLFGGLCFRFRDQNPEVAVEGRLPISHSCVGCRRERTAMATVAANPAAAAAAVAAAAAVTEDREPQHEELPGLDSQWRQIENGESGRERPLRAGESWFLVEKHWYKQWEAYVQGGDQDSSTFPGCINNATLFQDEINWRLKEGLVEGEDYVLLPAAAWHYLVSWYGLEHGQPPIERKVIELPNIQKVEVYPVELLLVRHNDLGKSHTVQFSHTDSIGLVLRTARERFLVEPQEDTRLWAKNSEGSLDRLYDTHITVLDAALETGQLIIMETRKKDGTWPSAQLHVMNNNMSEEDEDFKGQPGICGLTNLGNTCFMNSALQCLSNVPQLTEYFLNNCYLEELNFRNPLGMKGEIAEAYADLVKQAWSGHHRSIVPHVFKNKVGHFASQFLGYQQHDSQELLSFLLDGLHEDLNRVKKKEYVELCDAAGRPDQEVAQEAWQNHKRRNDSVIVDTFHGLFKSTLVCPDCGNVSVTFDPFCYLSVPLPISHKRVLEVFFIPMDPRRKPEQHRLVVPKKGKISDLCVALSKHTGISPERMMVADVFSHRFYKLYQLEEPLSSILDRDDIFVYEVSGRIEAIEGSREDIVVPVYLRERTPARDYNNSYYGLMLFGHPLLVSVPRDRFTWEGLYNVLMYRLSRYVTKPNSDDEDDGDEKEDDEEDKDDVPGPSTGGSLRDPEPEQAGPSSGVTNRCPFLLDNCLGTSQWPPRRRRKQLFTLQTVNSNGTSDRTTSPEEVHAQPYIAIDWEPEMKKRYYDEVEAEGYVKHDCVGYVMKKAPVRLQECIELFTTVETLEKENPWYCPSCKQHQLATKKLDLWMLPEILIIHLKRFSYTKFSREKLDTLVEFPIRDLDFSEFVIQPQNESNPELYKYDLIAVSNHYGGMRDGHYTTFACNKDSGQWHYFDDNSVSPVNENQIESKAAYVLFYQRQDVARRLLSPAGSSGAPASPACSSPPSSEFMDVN

Results are given in words; binding and its absence hold for the method and conditions named. In cells and extracts the contact can be indirect. Some results given as binding are weak or reduced against the parent protein; the word gives no strength.

Turning to “B-cell lymphoma 2 (BCL2) (from UniProt P10415 1-239)”, the binding result is reported as “binds”.

For “ubiquitin-specific protease 11 (USP11) (from UniProt P51784 1-963) (enzyme)”, the binding result is “binds”.

The values above are taken from article PMC12080269.
